Measured values as given in patent publication US11013698B2, “Combinations of LSD1 inhibitors for the treatment of hematological malignancies” (Oryzon Genomics S.A., priority 2016, dated 2021).

Columns and labels:
Test in all cases: Viability assay (96 hours), Alamar Blue
Assay type in all cases: cell-based
[1] = test system: MV(4;11); conditions: Homo sapiens, MV4-11, single agent
Procedure: (§1) AML cell lines were maintained in RPMI 10% FBS medium at 37° C. in a humidified incubator with controlled 5% CO2 atmosphere. Cell freezing and thawing was performed following recommendation from ATCC. Genetic profiling of the cell lines used is available in table 2. Cells were seeded at the optimal density (to guarantee linear growth during the treatment), as previously determined (4000 cells/well, except 16000 cells/well in the case of KASUMI-1 cells), in 96-well plates with 50 μL of medium. Three wells were reserved for each experimental condition; medium-only and vehicle-treated controls were also added for background correction and normalization respectively. After seeding, 50 μL of medium containing 8 serial dilutions (1:3) of ORY-1001 (or any other candidates for combinatorial treatment) were added to the cells. […] Alamar Blue® is a cell viability indicator that uses the natural reducing power of living cells to convert resazurin to the fluorescent molecule, resorufin^43.

[2] = test system: THP-1; conditions: Homo sapiens; THP-1, 96 hours, single agent
Procedure: as §1

[3] = test system: MOLM-13; conditions: Homo sapiens; MOLM-13, 96 hours, single agent
Procedure: as §1

[4] = test system: OCI-AML2; conditions: Homo sapiens; OCI-AML2, 96 hours, single agent
Procedure: as §1

[5] = test system: KASUMI-1; conditions: Homo sapiens; KASUMI-1, 96 hours, single agent
Procedure: as §1

[6] = test system: HL-60; conditions: Homo sapiens; HL-60, 96 hours, single agent
Procedure: as §1

[7] = test system: OCI-AML3; conditions: Homo sapiens, OCI-AML-3; OCI-AML3, 96 hours, single agent
Procedure: as §1

EC50 [2]: 100 to 1000 nM
EC50 [3]: 100 to 1000 nM
EC50 [4]: 100 to 1000 nM
EC50 [6]: 100 to 1000 nM
EC50 [7]: 100 to 1000 nM
Structure (SMILES): O=C(CCCCCCC(=O)Nc1ccccc1)NO [SAHA, suberanilohydroxamic acid]
EC50 [1]: 100 to 1000 nM
EC50 [5]: 100 to 1000 nM
